Source: patent US20250248975A1, “MACROCYCLIC COMPOUNDS, COMPOSITIONS, AND METHODS OF USING THEREOF” (Sionna Therapeutics Inc., priority 2022, published 2025)
At least one compound was matched to its structure with a doubt left.

Sequences of proteins named here, by UniProt entry; tags and fusion partners are left off. Residues count along the entry.
UniProt P13569, 423-646 limits assumed: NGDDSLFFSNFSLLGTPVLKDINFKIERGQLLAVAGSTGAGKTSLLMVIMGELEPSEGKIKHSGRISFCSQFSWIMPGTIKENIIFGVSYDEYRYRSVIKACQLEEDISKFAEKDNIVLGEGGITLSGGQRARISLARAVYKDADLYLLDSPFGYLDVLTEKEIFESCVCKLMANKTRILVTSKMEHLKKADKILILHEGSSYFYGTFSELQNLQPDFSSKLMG

Each molecule was assayed against T1, NBD1 (Homo sapiens, UniProt P13569) (assay: Aggregation analysis using differential static light scattering (DSLS): thermal stability of NBD1). Settings: recombinant NBD1 0.2 mg/ml, Tagg minus average Tagg of DMSO control wells.
T1 construct: Purified recombinant NBD1 was produced using previously described methods; made in house
Type: binding

| Structure (SMILES) | DSLS (ΔTagg) |
| --- | --- |
| CC1(C)CCCCC(C)(c2cccc(CCC(=O)O)c2)c2csc(n2)-c2cc(ccc2F)Oc2c(F)cc3[nH]ccc3c2Cn2cc1nn2 (single isomer, unassigned) [Example 78A, 3-[3-(24,30-difluoro-6,11,11-trimethyl-26-oxa-3-thia-13,14,15,21,33-pentazahexacyclo-[25.3.1.12,5.112,15.017,25.018,22]tritriaconta-1(31),2(33),4,12(32),13,17,19,22,24,27,29-undecaen-6-yl)phenyl]propanoic acid] | A (an ΔTagg value less than or equal to 5 °C is marked "A") |
| CC1(C)CCCCC(C)(c2cccc(CCC(=O)O)c2)c2csc(n2)-c2cc(ccc2F)Oc2c(F)cc3[nH]ccc3c2Cn2cc1nn2 (single isomer, unassigned) [Example 78B, 3-[3-(24,30-difluoro-6,11,11-trimethyl-26-oxa-3-thia-13,14,15,21,33-pentazahexacyclo-[25.3.1.12,5.112,15.017,25.018,22]tritriaconta-1(31),2(33),4,12(32),13,17,19,22,24,27,29-undecaen-6-yl)phenyl]propanoic acid] | C (a value greater than 10 °C and less than or equal to 25 °C is marked "C") |
| C[C@H](Cc1cccc(C2(C)CCC(F)(F)COc3ccn(n3)Cc3c(c(F)cc4[nH]ccc34)Oc3ccc(F)c(c3)-c3nc2nn3C)c1)C(=O)O (single isomer, unassigned) [Example 120B] | A (an ΔTagg value less than or equal to 5 °C is marked "A") |
